For part of these data: At least one read-out could not be matched to a standard name with certainty. At least one compound was matched to its structure with a doubt left. Some of these results come from one statement about several compounds together.
What was measured:
Format in all cases: cell-based, human
[1] = tested on: cisplatin-resistant ovarian carcinoma cells (A2780CP70); experiment: MTT cytotoxicity assay, A2780CP70 cells; details: A2780CP70 versus A2780
[2] = tested on: HT-29 (colorectal adenocarcinoma); experiment: MTT cytotoxicity assay, HT-29 cells; details: ratio to cisplatin
A549 cells = experiment: Cytotoxicity in the presence of cell death inhibitors, A549 cells; details: for IC50: necrostatin-1, FIG. 1B, read-out: residual toxicity in A549 cells co-incubated with necrostatin-1; for effect of z-VAD-FMK on ability to kill A549 cells / IC50: z-VAD-FMK 5 μM, 72 h, FIG. 1A

| Structure (SMILES) | better efficacy against A2780CP70 than against cisplatin-sensitive A2780 cells [1] | IC50 lower in colorectal adenocarcinoma cells than IC50 of cisplatin [2] | IC50 (A549 cells) [nM] | effect of z-VAD-FMK on ability to kill A549 cells / IC50 (A549 cells) |
| --- | --- | --- | --- | --- |
| C[O][Re](=[O])([Cl])[Cl].c1ccc(-c2ccnc3c2ccc2c(-c4ccccc4)ccnc23)cc1 [Compound 1, [ReO(OMe)(4,7-diphenyl-1,10-phenanthroline)-Cl2]] | up to 15 times | 2 orders of magnitude | > 1000 | remained largely unaltered |
| C[O][Re-2]1(=[O])([Cl])([Cl])[n+]2cc(C)c(C)c3ccc4c(C)c(C)c[n+]1c4c32 [Compound 2, [ReO(OMe)(3,4,7,8-tetramethyl-1,10-phenanthroline)Cl2]] | up to 15 times | 2 orders of magnitude | > 1000 | remained largely unaltered |
| COc1cc([C@@H]2c3cc4c(cc3[C@@H](O[C@@H]3O[C@@H]5CO[C@@H](C)O[C@H]5[C@H](O)[C@H]3O)[C@H]3COC(=O)[C@H]23)OCO4)cc(OC)c1O [etoposide, reference compound] | – | – | – | increased significantly |

From patent US20150299233A1, “COMPOSITIONS AND METHODS COMPRISING RHENIUM FOR THE TREATMENT OF CANCERS” (Massachusetts Institute of Technology, priority 2014, published 2015)
